Assay [1] deals with Dsn1-6His-3M3DK (K. marxianus) (K. marxianus). As to the kind of experiment: immunogold labelling of affinity-purified particles (negative stain EM); kinetochores purified via Dsn1-His-M3DK from strain SBY21752 (Ndc80-V5) or SBY18150 (no V5), incubated with α-V5 antibody on 10 nm gold, 30 min, room temperature.
Assay [2] shares this target. As to the kind of experiment: co-IP; Dsn1-His-M3DK captured from lysate of benomyl-treated K. marxianus on α-M3DK Dynabeads (Buffer H, 150 mM KCl, 4 °C), eluted with 3xM3DK peptide; immunoblot of the eluate. In general terms: In western blotting, separated proteins are transferred to a membrane and probed.

Chains of the proteins cited; added tags and fusions are not shown.
UniProt A0ABX6F2N8: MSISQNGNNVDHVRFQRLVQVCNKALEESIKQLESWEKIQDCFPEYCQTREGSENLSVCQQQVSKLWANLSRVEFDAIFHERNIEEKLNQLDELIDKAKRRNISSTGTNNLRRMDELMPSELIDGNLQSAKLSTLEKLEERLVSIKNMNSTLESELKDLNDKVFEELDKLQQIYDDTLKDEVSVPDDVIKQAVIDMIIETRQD
UniProt A0ABX6ES48: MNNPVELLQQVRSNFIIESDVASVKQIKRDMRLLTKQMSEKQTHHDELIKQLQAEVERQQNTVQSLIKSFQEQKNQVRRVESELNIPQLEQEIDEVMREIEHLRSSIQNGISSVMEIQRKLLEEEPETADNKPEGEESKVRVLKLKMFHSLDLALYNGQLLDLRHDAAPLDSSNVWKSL

No constants are given. Whether binding was seen depends on the method and setting. For part of these data: In cells and extracts the contact can be indirect. Some binding calls cover weakened binding; strength is not graded here.

“Ndc80-6xHis-3xV5 (K. marxianus) (from UniProt A0ABX6F1V2 1-676)”: the binding entry in assay [1] is recorded as “binds”.
With “Nnf1 (K. marxianus) (from UniProt A0ABX6F2N8 1-203)”, the binding entry in assay [2] was “binds”.
Still for that read-out and setting: next, “Spc24 (K. marxianus) (from UniProt A0ABX6ES48 1-179)”: “binds”.

(Values after publication PMC11387133.)
